Source: PMC5823975
No constants are given. Whether binding was seen depends on the method and setting. In cells and extracts the contact can be indirect. Some results given as binding are weak or reduced against the parent protein; the word gives no strength. One block for each binder: values may come before it.

Sequences of proteins named here, by UniProt entry; tags and fusion partners are left off. A change or cut given only in a name is not applied to a line headed by its entry.
UniProt Q62210: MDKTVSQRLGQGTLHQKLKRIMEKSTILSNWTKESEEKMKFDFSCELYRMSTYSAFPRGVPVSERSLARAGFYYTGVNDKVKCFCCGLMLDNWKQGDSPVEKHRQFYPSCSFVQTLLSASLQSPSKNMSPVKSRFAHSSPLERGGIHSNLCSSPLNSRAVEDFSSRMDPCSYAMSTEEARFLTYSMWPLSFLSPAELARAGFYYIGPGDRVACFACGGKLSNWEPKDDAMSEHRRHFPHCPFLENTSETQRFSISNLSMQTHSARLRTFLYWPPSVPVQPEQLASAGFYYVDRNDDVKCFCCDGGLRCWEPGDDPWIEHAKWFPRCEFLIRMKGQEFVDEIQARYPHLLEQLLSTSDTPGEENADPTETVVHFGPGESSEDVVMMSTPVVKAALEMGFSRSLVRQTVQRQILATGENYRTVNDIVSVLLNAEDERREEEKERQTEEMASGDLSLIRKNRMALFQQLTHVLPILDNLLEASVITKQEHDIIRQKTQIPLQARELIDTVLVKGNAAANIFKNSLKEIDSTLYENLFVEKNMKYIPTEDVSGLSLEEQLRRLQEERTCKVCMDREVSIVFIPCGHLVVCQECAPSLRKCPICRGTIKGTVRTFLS

How the values were obtained:
[1] = target: RIPK3 (endogenous, mouse BMDMs) (mouse (endogenous in BMDMs)), Q9QZL0; assay: proximity ligation; primary BMDMs of cIAP2^-/- and cIAP1^UBAmut animals, 1 ng/mL TNF, RIPK1 and RIPK3 antibodies, Duolink kit, confocal microscope; conditions: remark: other sources report otherwise
[2] = target: cIAP1^UBAmut (mouse cIAP1 M396A F398A) (mouse) (UniProt Q62210); assay: pull-down; biotinylated SMAC mimetic used to purify IAPs from lysates of cIAP2^-/- and cIAP1^UBAmut MEFs; TRAF2 by immunoblot
[3] = target: cIAP1 (endogenous, mouse cells) (mouse (endogenous in MEFs and MDFs)) (UniProt Q62210); assay: as above

binding [1]: binds
B1: RIPK1 (endogenous, mouse cells), Q60855 1-656 (protein)
chain: MQPDMSLDNIKMASSDLLEKTDLDSGGFGKVSLCYHRSHGFVILKKVYTGPNRAEYNEVLLEEGKMMHRLRHSRVVKLLGIIIEEGNYSLVMEYMEKGNLMHVLKTQIDVPLSLKGRIIVEAIEGMCYLHDKGVIHKDLKPENILVDRDFHIKIADLGVASFKTWSKLTKEKDNKQKEVSSTTKKNNGGTLYYMAPEHLNDINAKPTEKSDVYSFGIVLWAIFAKKEPYENVICTEQFVICIKSGNRPNVEEILEYCPREIISLMERCWQAIPEDRPTFLGIEEEFRPFYLSHFEEYVEEDVASLKKEYPDQSPVLQRMFSLQHDCVPLPPSRSNSEQPGSLHSSQGLQMGPVEESWFSSSPEYPQDENDRSVQAKLQEEASYHAFGIFAEKQTKPQPRQNEAYNREEERKRRVSHDPFAQQRARENIKSAGARGHSDPSTTSRGIAVQQLSWPATQTVWNNGLYNQHGFGTTGTGVWYPPNLSQMYSTYKTPVPETNIPGSTPTMPYFSGPVADDLIKYTIFNSSGIQIGNHNYMDVGLNSQPPNNTCKEESTSRHQAIFDNTTSLTDEHLNPIRENLGRQWKNCARKLGFTESQIDEIDHDYERDGLKEKVYQMLQKWLMREGTKGATVGKLAQALHQCCRIDLLNHLIRASQS

binding [2]: binds
binding [3]: binds
B2: TRAF2 (endogenous, MEFs) (protein, UniProt P39429 1-501)
chain: MAAASVTSPGSLELLQPGFSKTLLGTRLEAKYLCSACKNILRRPFQAQCGHRYCSFCLTSILSSGPQNCAACVYEGLYEEGISILESSSAFPDNAARREVESLPAVCPNDGCTWKGTLKEYESCHEGLCPFLLTECPACKGLVRLSEKEHHTEQECPKRSLSCQHCRAPCSHVDLEVHYEVCPKFPLTCDGCGKKKIPRETFQDHVRACSKCRVLCRFHTVGCSEMVETENLQDHELQRLREHLALLLSSFLEAQASPGTLNQVGPELLQRCQILEQKIATFENIVCVLNREVERVAVTAEACSRQHRLDQDKIEALSNKVQQLERSIGLKDLAMADLEQKVSELEVSTYDGVFIWKISDFTRKRQEAVAGRTPAIFSPAFYTSRYGYKMCLRVYLNGDGTGRGTHLSLFFVVMKGPNDALLQWPFNQKVTLMLLDHNNREHVIDAFRPDVTSSSFQRPVSDMNIASGCPLFCPVSKMEAKNSYVRDDAIFIKAIVDLTGL
